Source: PubChem BioAssay AID2685 (National Center for Advancing Translational Sciences (NCATS), 2010)
This is one part of the list. These are further read-outs of the screen, such as a control signal, another cell line or another target. No call is given for them. Compounds called inactive in the main read-out are mostly missing here. The note in brackets gives the kind of curve behind each potency; many fits are weak.

Experiment: qHTS Assay for Lipid Storage Modulators in Drosophila S3 Cells;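 on cell number change: cells counted by Cell Tracker Red CMTPX staining in the red channel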
Details: BODIPY lipid droplet fluorescence, 18-24 h; for cell number change: measured here: cell count max response, cells fed with added oleic acid
Method in brief: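 Drosophila S3 cells loaded with oleic acid (400 uM, as added) and compounds at several concentrations; lipid droplets imaged by 488-nm laser-scanning cytometry, 500–530 nm intensity and object ratio to cell channel. Percent activity normalized to 20 uM Triacsin C.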

[1] = measured here: lipid fluorescence (Fed channel) AC50, cells fed with added oleic acid
[2] = measured here: cell number channel AC50, cells fed with added oleic acid

Structure (SMILES)	cell number change [%]	AC50 [1]	AC50 [2]
O=c1[nH]n(-c2cccc(Cl)c2)c2ncccc12	17.1	5.17 µM [rising, partial curve, poor fit]	–
Cc1nnc(NC(=O)CSc2nnc(CNC(=O)c3ccc(F)cc3)o2)s1	7.77	–	–
CCc1cc2c(=O)c(-c3nc4ccccc4n3C)c(COCC(=O)O)oc2cc1O	-11.2	–	–
COc1cccc(NC(=S)N2CCn3cccc3C2c2cccnc2)c1 (centres undefined)	–	0.58 µM [rising, single point]	–
COc1ccc(N(C(=O)c2snc(C(N)=O)c2N)C(C(=O)NC2CCCC2)c2cccs2)cc1OC (centres undefined)	-15.2	29.1 µM [falling, single point]	–
c1ccc2c(c1)CC1(CCCC1)N=C2N1CCOCC1	8.77	6.51 µM [falling, single point]	–
CC(CC#CCN1CCOCC1)OCCC#N (centres undefined)	-9.27	–	–
O=C(c1ccccc1)N1CCN(S(=O)(=O)N2CCOCC2)CC1	-1.25	6.51 µM [rising, single point]	–
CCCCN(Cc1ccco1)C(=O)C1CCCN(c2ncnc3c2nc2n3CCCCC2)C1 (centres undefined)	-23.6	23.1 µM [rising, single point]	–
N#Cc1cc2c(cc1NC(=O)CCn1cnnn1)OCO2	0.989	6.51 µM [rising, single point]	–
CCNC(=O)N1C(=O)C2(OCCO2)c2ccccc21	-44.1	0.00411 µM [falling, full curve, poor fit]	11.6 µM [falling, partial curve]
Cn1ccnc1SCC(=O)c1cc2ccccc2o1	-1.21	–	–
N=c1c2c3c(sc2ncn1CCCO)CCCC3	24.1	4.11 µM [falling, single point]	–
COc1nc(-c2ccccc2)ccc1-c1noc(COc2ccccc2)n1	77.1	3.66 µM [rising, partial curve]	29.1 µM [rising, single point]
Cc1cc(N)n2ncc(-c3ccc(F)cc3)c2n1	57.3	29.1 µM [rising, single point]	3.26 µM [rising, full curve]
Cc1ccc2[nH]c(=O)c(CN(Cc3cccs3)C(=S)NCC3CCCO3)cc2c1 (centres undefined)	20.3	0.164 µM [rising, full curve, poor fit]	–

Structure (SMILES)	cell number change [%]	AC50 [1]	AC50 [2]
O=C1CCCc2c1cc(-c1ccccc1)n2-c1ccccc1	10.5	0.651 µM [falling, single point]	–
CCc1c(C(=O)NNC(=S)Nc2ccc(S(=O)(=O)Nc3ncccn3)cc2)csc1C	19.4	4.11 µM [rising, partial curve, poor fit]	–
CCN(C(=O)C(C)N1C(=O)/C(=C/c2ccco2)SC1=S)C1CCS(=O)(=O)C1 (centres undefined)	4.58	20.6 µM [rising, single point]	–
O=C(O)CSc1nc2ccc(Cl)cc2[nH]1	37.5	–	0.231 µM [rising, full curve]
Cc1ccccc1NC(=O)NCc1ccco1	31.6	–	0.206 µM [rising, partial curve, poor fit]
CCn1nc([N+](=O)[O-])c(C(C#N)c2nc3ccccc3n2C)c(Cl)c1=O (centres undefined)	–	13 µM [rising, single point]	–
C/C(=N\Nc1nc(C)cc(-c2ccccc2)n1)c1ccc(F)cc1	6.47	–	–
CC(CC(=O)Nc1ccccc1C(F)(F)F)c1ccccc1 (centres undefined)	3.76	–	0.731 µM [rising, full curve, poor fit]
COc1cccc(/C=N/Nc2nnc(C)n2N)c1OCc1ccccc1Cl	-34.7	29.1 µM [falling, single point]	–
COC(=O)C1=CO[C@@H](O[C@@H]2O[C@H](CO)[C@@H](O)[C@H](O)[C@H]2O)[C@H]2[C@@H]1C(=O)C[C@@H]2C	-8.78	0.146 µM [rising, full curve, poor fit]	–
Cc1ccc(/C(O)=C2\C(=O)C(=O)N(c3cc(C)on3)C2c2cccc(Cl)c2)cc1 (centres undefined)	-22.9	29.1 µM [falling, partial curve]	–
O=S(=O)(NCC1CCCO1)c1ccc(S(=O)(=O)N(Cc2ccc(F)cc2)Cc2ccccn2)cc1 (centres undefined)	16.4	3.26 µM [falling, partial curve]	–
O=C(O)c1ccccc1NC(=O)c1ccccc1-c1ccccc1C(=O)O	-6.08	20.6 µM [rising, partial curve, poor fit]	–
CN1CCc2c(sc3c2c(=O)n(-c2ccccc2)c2n[nH]c(=S)n32)C1	21.7	23.1 µM [falling, single point]	–
CCc1nnc(NC(=O)CSc2nc(-c3ccccc3)cc(-c3ccc(OC)cc3)c2C#N)s1	115	1.64 µM [rising, partial curve, poor fit]	16.4 µM [rising, partial curve]

Single records (already shown).
CC(CC(=O)Nc1ccccc1C(F)(F)F)c1ccccc1 (centres undefined) as listed: cell number change [%]: 3.76; AC50 [2]: 0.731 µM [rising, full curve, poor fit]
CCc1c(C(=O)NNC(=S)Nc2ccc(S(=O)(=O)Nc3ncccn3)cc2)csc1C as listed: cell number change [%]: 19.4; AC50 [1]: 4.11 µM [rising, partial curve, poor fit]
